Results from the supplement of paper PMC12889115.
The list shows a part of the results. These are raw signals, not scaled to a control.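 Primary screen: polymyxin B was added at a level permeabilizing Salmonella outer membranes while sparing inner membranes. DMSO wells, both with and without polymyxin B, established maximum growth. Plate-to-plate variation meant each plate was ranked on its own, and the lowest-OD600 compounds were selected as hits.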

System: Salmonella enterica serovar Typhimurium SL1344
Assay: bacterial growth OD600 after 18 h with compound and polymyxin B; higher = more bacterial growth (less inhibition)
Details: 50 µM, Mueller-Hinton broth

SMILES	bacterial growth OD600 (polymyxin B 1 µg/mL)	bacterial growth OD600 (polymyxin B 0.75 µg/mL)
COc1ccc(CN(C)CC2CCCN(CCc3ccccc3C)C2)cc1OC (stereo unspecified)	0.732	
O=C(Cc1ccsc1)NC1CC(=O)N(CCCc2ccccc2)C1 (stereo unspecified)	1.07	
CCCOC1CCCN(Cc2nc(-c3cccc(Cl)c3)no2)C1 (stereo unspecified)	0.883	
O=C(Nc1cccc(-c2ccc(F)cc2)c1)C1CCCN(C(=O)c2cccnc2)C1 (stereo unspecified)	0.909	
O=C(c1cccs1)N1CCOc2ccc(CN3CCN(c4ccccc4)CC3)cc2C1		0.746
O=C(CCc1cn[nH]c1)N1CCC(C2CCN(c3ncccn3)CC2)C1 (stereo unspecified)		0.848
O=C(Cc1ccccc1)Nc1nc2c(s1)C(=O)CC(C(=O)NCC1COc3ccccc3O1)C2 (stereo unspecified)		0.639
COc1ccc(F)c(CC2(CCC(=O)N3CCN(Cc4ncccc4C)CC3)CCC(=O)N2)c1 (stereo unspecified)		0.829
O=C(c1ccc2ncccc2c1)N1CCc2onc(-c3ccccc3)c2C1	0.885	
CC(=O)C1CCCN(Cc2cnc(S(=O)(=O)C(C)C)n2CCc2ccccc2)C1 (stereo unspecified)	1.22	
COc1ccccc1N1CCN(c2ncccc2CNC(=O)C2(C(N)=O)CC2)CC1	0.868	
COc1ccc(CCc2nnc(CCC(=O)NCC3CC34CCCCC4)o2)cc1 (stereo unspecified)	1.08	
COc1ccc(CNC(=O)CCC2CCCN(Cc3ccc(C)cc3)C2)c(OC)c1 (stereo unspecified)		0.783
CCN(CC)c1ncccc1CNC(=O)Cc1cccs1		0.797
Cc1cccc(-c2cccc(C(=O)N3CCc4c(cnc(C)c4CNC(=O)C4CCCO4)C3)c2)c1 (stereo unspecified)		0.479
CCn1ccnc1CNC1CC(=O)N(CCc2cccc(Cl)c2)C1 (stereo unspecified)	0.952	

Some values from above.
Value for `COc1ccc(F)c(CC2(CCC(=O)N3CCN(Cc4ncccc4C)CC3)CCC(=O)N2)c1` (stereo unspecified) under bacterial growth OD600 (polymyxin B 0.75 µg/mL): 0.829
Value for `CC(=O)C1CCCN(Cc2cnc(S(=O)(=O)C(C)C)n2CCc2ccccc2)C1` (stereo unspecified) under bacterial growth OD600 (polymyxin B 1 µg/mL): 1.22

Remaining list, next part

SMILES	bacterial growth OD600 (polymyxin B 1 µg/mL)	bacterial growth OD600 (polymyxin B 0.75 µg/mL)
COC(=O)CCC(=O)N(C)CC1CCN(CCc2ccccc2OC)CC1	1.01	
COc1ccc(NC2CCCN(C(=O)c3ccc(Cl)cc3F)C2)cc1 (stereo unspecified)	0.888	
CCn1ncc(CN2CCOC(Cc3cccc(C(F)(F)F)c3)C2)c1C (stereo unspecified)		0.752
COc1ccccc1CC(=O)Nc1cnn(CC(=O)N2CCC(c3cccc(OC)c3OC)C2)c1 (stereo unspecified)		0.856
CN(Cc1ccon1)C(=O)c1ccc(OC2CCN(C(=O)C3CC3)CC2)cc1	1	
COc1cc(CC2(CCC(=O)NCc3cnn(-c4ccccc4OC)c3)CCC(=O)N2)ccc1F (stereo unspecified)		0.804
COC(=O)CCNC(=O)C1CCN(c2nc(-c3ccccc3)nc3c2CCC3)CC1		0.808
O=C(Cc1ccc(N2CCC(NCCc3ccc(C(F)(F)F)cc3)CC2)cc1)NCc1ccccn1		0.661
Cc1cnc(C(=O)N2CCc3[nH]nc(-c4ccc(Cl)cc4)c3C2)cn1		0.733
CC1(C(=O)N2CCCC(CCc3ccccc3)C2)CC1 (stereo unspecified)		0.706
COc1ccc(-c2cnnc(NCCN3CCCCC3CO)n2)cc1 (stereo unspecified)		0.751
CN(C(=O)CC1(c2ccccc2Cl)CC(=O)N(C2CCCC2)C1=O)C(C1CC1)C1CC1 (stereo unspecified)		-0.002
COc1ccc(OCc2nc(C(=O)NC(C)c3ccccc3)co2)cc1 (stereo unspecified)	0.668	
O=C(c1ccc(N2CCC(NCc3cccc(OC(F)(F)F)c3)CC2)cc1)N1CCOCC1		0.876
CCN1CC(CNC2CCN(c3ccc(C(=O)NCc4ccc5c(c4)OCO5)cc3)CC2)CC1=O (stereo unspecified)		0.882
